Measured values taken from PMC5412559.
No constants are given. Whether binding was seen depends on the method and setting. In cells and extracts the contact can be indirect. Some results given as binding are weak or reduced against the parent protein; the word gives no strength. Tags and fused reporters may be left off the sequences shown.

Molecular target: T1, dSarm-3×Flag (Drosophila melanogaster) (UniProt Q6IDD9)
T1 sequence: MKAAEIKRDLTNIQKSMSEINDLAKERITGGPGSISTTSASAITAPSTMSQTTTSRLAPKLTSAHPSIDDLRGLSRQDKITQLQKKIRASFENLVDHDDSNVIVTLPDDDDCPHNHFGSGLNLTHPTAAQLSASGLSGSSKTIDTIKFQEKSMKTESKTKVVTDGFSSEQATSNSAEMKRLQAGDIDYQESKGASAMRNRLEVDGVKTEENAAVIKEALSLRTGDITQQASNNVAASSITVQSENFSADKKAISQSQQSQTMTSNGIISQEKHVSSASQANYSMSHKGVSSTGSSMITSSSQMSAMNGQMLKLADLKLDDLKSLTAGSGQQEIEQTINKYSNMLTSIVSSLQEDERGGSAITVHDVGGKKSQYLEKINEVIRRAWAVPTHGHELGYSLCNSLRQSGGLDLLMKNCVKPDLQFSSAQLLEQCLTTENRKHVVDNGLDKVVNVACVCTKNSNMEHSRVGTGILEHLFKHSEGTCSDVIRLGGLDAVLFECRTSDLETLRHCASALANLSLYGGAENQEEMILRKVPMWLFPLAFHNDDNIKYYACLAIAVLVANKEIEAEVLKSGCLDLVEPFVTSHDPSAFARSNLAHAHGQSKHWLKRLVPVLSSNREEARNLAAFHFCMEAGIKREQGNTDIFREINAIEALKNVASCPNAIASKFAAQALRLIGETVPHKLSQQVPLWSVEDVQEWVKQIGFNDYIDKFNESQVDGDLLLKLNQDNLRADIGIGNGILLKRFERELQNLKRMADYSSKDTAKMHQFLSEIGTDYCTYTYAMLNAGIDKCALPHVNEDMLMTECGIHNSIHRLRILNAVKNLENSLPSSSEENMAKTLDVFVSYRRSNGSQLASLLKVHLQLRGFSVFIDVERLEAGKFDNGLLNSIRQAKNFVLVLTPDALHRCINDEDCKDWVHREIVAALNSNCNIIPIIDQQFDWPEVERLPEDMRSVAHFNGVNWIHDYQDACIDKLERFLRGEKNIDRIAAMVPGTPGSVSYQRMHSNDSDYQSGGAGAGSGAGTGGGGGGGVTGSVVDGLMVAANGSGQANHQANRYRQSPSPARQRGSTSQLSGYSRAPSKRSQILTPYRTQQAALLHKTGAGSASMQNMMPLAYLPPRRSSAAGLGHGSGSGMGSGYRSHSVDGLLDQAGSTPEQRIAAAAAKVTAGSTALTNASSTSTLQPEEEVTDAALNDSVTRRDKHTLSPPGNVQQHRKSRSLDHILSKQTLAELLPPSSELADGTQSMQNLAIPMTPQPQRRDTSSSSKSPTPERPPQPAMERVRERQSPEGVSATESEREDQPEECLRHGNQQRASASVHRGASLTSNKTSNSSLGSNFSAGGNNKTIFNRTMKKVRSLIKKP
Experiment: co-IP; S2 cells cotransfected, collected 48 h after transfection, lysed in NP-40 buffer or Flag affinity chromatography buffer; the Flag-tagged protein precipitated with anti-Flag antibody-conjugated agarose or magnetic beads; Western blot

- binding: binds
B1: Wek-3×HA (protein, UniProt Q9VJN5 1-470)
chain: MGVPTSDWIYWCRLCARDDVVYKVRERDDDLVRIISKCFDVEMTLEEPELGSMLCEECYSVIGQLITFSDSVSKVQAIFELLRHSEPQDSQDLDALRLEYGLPPACKQDLEFLDIDDTEDRCSLVEELTISDHSTSPSPDFEAQTVRTRANLKQCNSDPKVLASPTASIPEVETKRSRRQQFAAKRNSKVYTATESDDEEAILDEDEAVSPPPLKRKRGRPKGSGKQKNVDDSDNVTSREPDDNAKSKQDDKTSELSMSPHGSQSSNFVDYPCKICNETFMSFMALRRHKHDMHGGPKKYVCDHCGKGLKTFTSLVEHQLVHTEEKPCICPVCNAGFKNKARLRVHSQTHGEPKFECNVCGKKLQTRAILNKHKYVHTDERRFKCEVCGSGCKNSTALKIHLLGHTGLRPYVCKYCGKAFASNTNCRSHKWKKHPELASKEDETESSRVPVPTLEELRAITREMAKAKQD
